These are yes or no findings as the source states them, for the method shown. In cells and extracts the contact can be indirect. Here binding means that the protein was enriched with, or labelled near, the bait; the list need not be complete.
Tests used:
[1] = biological target: LL WT FUS-eGFP (human (endogenous in iPSC-derived neurons)) (UniProt P35637); assay: affinity purification with mass spectrometry; GFP-Trap immunoprecipitation of FUS-eGFP from LL WT and LL P525L iPSC-derived neurons, label-free LC-MS/MS; non-transgenic parental line to filter out non-specific interactors
[2] = biological target: LL P525L FUS-eGFP (human (endogenous in iPSC-derived neurons)) (UniProt P35637); assay: as above

By UniProt entry, the sequences of proteins in these tests, tags left out. Where a name states a change or a piece, a line headed by the entry shows the natural chain unless it says otherwise.
UniProt P35637: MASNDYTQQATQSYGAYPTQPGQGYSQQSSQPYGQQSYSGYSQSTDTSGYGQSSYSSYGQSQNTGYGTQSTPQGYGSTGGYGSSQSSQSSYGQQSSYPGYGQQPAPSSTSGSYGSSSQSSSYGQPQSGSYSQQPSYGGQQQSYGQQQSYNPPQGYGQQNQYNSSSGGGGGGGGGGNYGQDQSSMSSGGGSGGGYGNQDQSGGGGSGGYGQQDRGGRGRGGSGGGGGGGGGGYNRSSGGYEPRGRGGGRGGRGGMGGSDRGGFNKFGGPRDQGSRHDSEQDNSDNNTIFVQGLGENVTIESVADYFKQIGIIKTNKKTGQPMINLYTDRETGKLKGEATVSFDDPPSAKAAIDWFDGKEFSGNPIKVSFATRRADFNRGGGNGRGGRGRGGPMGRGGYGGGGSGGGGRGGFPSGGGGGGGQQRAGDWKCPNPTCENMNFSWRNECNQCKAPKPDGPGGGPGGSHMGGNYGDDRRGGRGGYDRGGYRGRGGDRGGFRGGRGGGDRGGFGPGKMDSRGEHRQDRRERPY
UniProt Q01844: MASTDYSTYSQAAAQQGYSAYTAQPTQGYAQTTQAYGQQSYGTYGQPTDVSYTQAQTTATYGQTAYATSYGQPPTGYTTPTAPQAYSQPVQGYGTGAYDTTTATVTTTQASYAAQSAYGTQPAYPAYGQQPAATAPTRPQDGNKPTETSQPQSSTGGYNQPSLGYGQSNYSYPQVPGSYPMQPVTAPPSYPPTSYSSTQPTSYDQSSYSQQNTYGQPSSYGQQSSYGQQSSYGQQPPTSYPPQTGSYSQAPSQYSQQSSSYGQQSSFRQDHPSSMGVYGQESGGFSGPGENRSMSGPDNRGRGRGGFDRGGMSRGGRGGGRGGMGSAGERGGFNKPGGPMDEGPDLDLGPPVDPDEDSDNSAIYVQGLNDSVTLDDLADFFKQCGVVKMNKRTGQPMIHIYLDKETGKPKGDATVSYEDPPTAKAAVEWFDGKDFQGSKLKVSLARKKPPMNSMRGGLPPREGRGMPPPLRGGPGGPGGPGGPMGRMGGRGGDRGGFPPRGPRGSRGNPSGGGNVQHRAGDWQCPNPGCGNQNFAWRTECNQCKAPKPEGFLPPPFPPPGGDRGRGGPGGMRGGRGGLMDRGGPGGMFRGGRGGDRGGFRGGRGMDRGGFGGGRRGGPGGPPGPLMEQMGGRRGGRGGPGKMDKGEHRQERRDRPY

binding [1]: binds | binding [2]: binds
Substance: Ewing sarcoma breakpoint region 1 (from UniProt Q01844 1-656)

From PMC6570784
